# Out of some 320,000 compounds screened, about 2,100 (0.66%) were called active. This list was built around the results that the source calls inconclusive (neither active nor inactive); the mix of calls is not that of the screen. The call rests on the fitted dose curve; in most records, active means well fitted inhibition curve with a large enough effect in the signal ratio, with a control signal flat (not every such curve was filed as active); inconclusive means small, poorly fitted or top-dose-only effect, or effect the other way, or a change in a side signal; inactive means flat fitted curve, though single readings scatter; the % refers to the signal ratio. Where the call is inconclusive, the potency comes from a doubtful curve fit.
# Assay: qHTS Assay for Lipid Storage Modulators in Drosophila S3 Cells
# Conditions: BODIPY lipid droplet fluorescence, 18-24 h, cells fed with added oleic acid; lipid storage change, negative = inhibition: at 46.1 µM (top of the series) unless noted
# Method in brief: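 Drosophila S3 cells got compounds at several concentrations plus oleic acid (400 uM solution). Laser-scanning cytometry with 488 nm excitation read lipid droplets at 500-530 nm and cells at 575-640 nm. Percent activity was relative to 20 uM Triacsin C.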
# On the % scale 0 is the no-effect control and ±100 the full control effect; potency means the concentration at half of the fitted maximal effect.
SMILES,"lipid storage change, negative = inhibition",Potency
CCOc1ccc(S(=O)(=O)N2CCCCC2)cc1NC(=O)C1CSC2(C)CCC(=O)N12 (configuration not stated),inconclusive: 23%,
C=CCN(CC(=O)Nc1c(C)cccc1CC)C(=O)SCCC,,"inconclusive: 1.3 µM [activator, partial curve]"
COC(=O)c1ccc(NC(=O)CS(=O)(=O)c2ccccc2)cc1,,"inconclusive: 29.1 µM [falling, single point]"
O=C(NCCCN1CCCC1=O)c1cccc(S(=O)(=O)NCc2ccccc2)c1,inconclusive: 303%,
COc1ccccc1-n1ccnc(SCC(=O)NCc2ccccc2)c1=O,inconclusive: 26.7%,
Cc1ccc(N(C)S(=O)(=O)c2ccc3c(c2)NC(=O)C(C)S3)cc1 (configuration not stated),,"inconclusive: 29.1 µM [activator, single point]"
COc1cc(C(=O)N2C[C@H]3CC[C@H]2C3)ccc1OC1CCN(C(C)=O)CC1,,"inconclusive: 16.4 µM [activator, partial curve]"
COc1ccc(N/N=C(/C)c2cnnc(-c3ccccc3)n2)cc1,inconclusive: 0.573%,
Clc1ccc(OCCCc2nc(-c3cccnc3)no2)c(Cl)c1,,active: 14.6 µM
CCCC(CCC)=NNc1ccc(S(=O)(=O)Nc2ccccc2OC)cc1[N+](=O)[O-],inconclusive: -100%,
Cc1cccc(Nc2nc(N)nc(CN3CCN(c4ccc(F)cc4)CC3)n2)c1,inactive,
O=c1[nH][nH]cc1C=Nc1ccc(Cl)cc1,inconclusive: -0.182%,
COc1ccc([N+](=O)[O-])cc1C1NN=C(c2cccc3ccccc23)S1 (configuration not stated),,"inconclusive: 29.1 µM [rising, single point]"
COCCn1c(SCc2cccc([N+](=O)[O-])c2)nc2ccccc2c1=O,inconclusive: 15.6%,
O=C(NCc1cccnc1)c1ccc(NC(=O)c2ccc(Br)cc2)cc1,,"inconclusive: 6.51 µM [activator, partial curve, poor fit]"
CCOc1ccccc1NC(=O)c1ccc2nc[nH]c2c1,,"inconclusive: 6.51 µM [activator, single point]"
CCCCN1C2=C(C(=O)CC(C)(C)C2)C(c2ccccc2)C2=C1c1ccccc1C2=O (configuration not stated),,"inconclusive: 6.51 µM [rising, single point]"
CCOC(=O)c1c(C)n(C)c2ccc(OC)c(NC(=O)CN3CCC4(CC3)OCCO4)c12,inconclusive: 8.11%,
O=C(CSc1nnc(CNc2ccc(F)cc2)n1Cc1ccco1)N1CCCC1,inconclusive: 15.9%,
CC1CCCCC1NC(=O)Cn1cnc2sccc2c1=O (configuration not stated),inconclusive,
Cc1cccc(C)c1NC1=NCCCCC1,inconclusive: 46.7%,
COc1ccc(Br)cc1C(=O)CCC(=O)OCC(=O)Nc1cc(C(N)=O)cc(C(N)=O)c1,inconclusive,
Cc1c(NC(=O)c2cccc(F)c2)c(=O)n(-c2ccccc2)n1C,inconclusive: 16.7%,
NC(=O)NC(=O)CSc1nc2sc(-c3ccccc3)cc2c(=O)n1-c1ccccc1,inconclusive: 17.7%,
COc1cc(Nc2nc3ccccc3n3nnnc23)cc(OC)c1OC,inconclusive: 49.7% [activator],
O=C(O)Cn1cc(CN2CCOCC2)c2ccccc21,inconclusive: 42.3%,

SMILES,"lipid storage change, negative = inhibition",Potency
COc1ccc(Nc2nc(OC)nc(N3CCOCC3)n2)cc1,inconclusive: 17.5%,
COc1ccc(N2CCN(C(=O)c3ccc(C)c(Cl)c3)CC2)cc1,inconclusive: 17.6%,
O=C(Nc1cccnc1)c1cccc(S(=O)(=O)Nc2cccc(Cl)c2)c1,,"inconclusive: 29.1 µM [falling, single point]"
COC(=O)[C@@H](Cc1ccccc1)NC(=O)[C@H]1CCC(=O)N1C(=O)OCc1ccccc1,,active: 7.31 µM
CN(CCC1CCOCC1)C(=O)CC1C(=O)NCCN1Cc1c(F)cccc1Cl (configuration not stated),,"inconclusive: 29.1 µM [falling, single point]"
Cc1ccc(S(=O)(=O)Nc2ccc(-n3cnnn3)cc2)c(C)c1,,active: 0.58 µM
N#CC1=C(SCC(=O)c2cc3ccccc3oc2=O)NC(=O)C(C#N)C12CCCC2 (configuration not stated),,"inconclusive: 0.058 µM [activator, full curve, poor fit]"
CC(C)c1ccc(S(=O)(=O)N2CCN(C(=O)c3cc([N+](=O)[O-])ccc3N3CCOCC3)CC2)cc1,,"inconclusive: 29.1 µM [falling, single point]"
O=C(CCCOc1ccc(Cl)cc1Cl)Nc1ccncc1,,"inconclusive: 4.11 µM [activator, partial curve]"
NC(=S)N/N=C/c1coc2ccc(F)cc2c1=O,inconclusive: 44.7%,
Cc1ccc(C(=O)COC(=O)c2ccc(Br)o2)cc1C,inconclusive: 9.94%,
COc1ccc(CCNC(=O)CSc2nc(O)c(CC(C)C)c(=O)[nH]2)cc1OC,inconclusive: 49.1%,
O=C(NC1CCS(=O)(=O)C1)C1C2CC3CC(C2)CC1C3 (configuration not stated),,"inconclusive: 1.16 µM [falling, full curve]"
O=C1SC(Cc2ccccc2)C(=O)N1c1ccccc1 (configuration not stated),inconclusive: 21.6%,
COc1ccc(C(=O)NNC(=O)C2CC=CCC2)cc1 (configuration not stated),inconclusive: -55%,
CN(C)S(=O)(=O)c1cccc(NC(=O)COC(=O)CCOc2ccccc2)c1,inconclusive: -31.4%,
Cc1nnc(SCC(=O)NNC(=O)COc2ccc(Cl)cc2)n1C,inconclusive: 119%,
Cc1ccc(S(=O)(=O)N2CCOCC2)cc1NC(=O)COc1ccc(C(=O)c2ccccc2)cc1,,active: 7.31 µM
CC(=O)Nc1cccc(C(=O)OC(C)C(=O)NCc2ccc3c(c2)OCO3)c1 (configuration not stated),,"inconclusive: 20.6 µM [falling, single point]"
COc1ccc(CNC(=O)Cc2cccs2)cc1,,"inconclusive: 6.51 µM [activator, single point]"
Cn1nc(-c2ccccc2)c2cc(C(=O)O)sc21,,"inconclusive: 0.0651 µM [falling, full curve, poor fit]"
CCN(CC(=O)Nc1c(F)cccc1F)C(=O)C1CC(=O)N(CCc2ccccc2)C1 (configuration not stated),inconclusive: 14.7%,
COC(=O)c1ccc(C2NC(=O)NC(C)=C2C(=O)N(C)C)cc1 (configuration not stated),inconclusive: -16.5%,
O=C(CSCc1c(Cl)cccc1Cl)NN1C(=O)c2ccccc2C1=O,inconclusive: 11.6%,
Cc1[nH]c2ccccc2c1C(=O)Cn1c(=O)oc2ccccc21,,"inconclusive: 0.291 µM [activator, partial curve, poor fit]"
Cc1csc(SCc2ccc(C(=O)O)cc2)n1,inconclusive: 31.5%,

# Entries above containing a furan ring, fused or not (2):
SMILES,"lipid storage change, negative = inhibition",Potency
O=C(CSc1nnc(CNc2ccc(F)cc2)n1Cc1ccco1)N1CCCC1,inconclusive: 15.9%,
Cc1ccc(C(=O)COC(=O)c2ccc(Br)o2)cc1C,inconclusive: 9.94%,

# Going on with the list.

SMILES,"lipid storage change, negative = inhibition",Potency
Cn1c(CNS(=O)(=O)c2ccc(F)cc2)n[nH]c1=S,inconclusive: 41.1%,
CC(=O)N/N=C(\C)C1COc2ccccc2O1 (configuration not stated),inconclusive: -0.43%,
Cc1cc(NC(=O)c2cccs2)no1,inconclusive: 15%,
O=c1[nH]c2ccccc2cc1CN(Cc1ccco1)S(=O)(=O)c1ccc(F)cc1,,"inconclusive: 32.6 µM [falling, partial curve, poor fit]"
COc1cccc(-c2ncc3ccccc3c2COC(=O)N2CCOCC2)c1,inconclusive: 13.7%,
Cc1cc(C(=O)OCC(=O)N2CC(=O)Nc3ccccc32)no1,,"inconclusive: 0.206 µM [falling, full curve, poor fit]"
Cc1cccc2sc(NC(=O)C3CC3)nc12,inconclusive: -17.2%,
O=C(c1ccc2nc(Cc3ccccc3F)oc2c1)N1CCCC1,inconclusive: 0.662%,
Cc1cccc(N(C)S(=O)(=O)c2c(C)[nH]c(C)c2C(=O)N2CCCC2)c1,inconclusive: -4.89%,
Cc1noc(C)c1S(=O)(=O)N1CCCC(C(=O)Nc2ccc(Cl)cn2)C1 (configuration not stated),inconclusive: 10.8%,
COc1cc(OC)c(C(=O)OCC(=O)N2CCOCC2)cc1OC,,"inconclusive: 0.58 µM [falling, single point]"
COCCN(C(=O)C1CC(=O)N(Cc2ccccc2)C1)c1nc(-c2ccc([N+](=O)[O-])cc2)cs1 (configuration not stated),,"inconclusive: 32.6 µM [falling, single point]"
Cc1ccc2cc(CCNC(=O)Cc3cccs3)c(=O)[nH]c2c1,inconclusive: -1.01%,
COc1ccc(N(CC(=O)NCC2CCCO2)S(=O)(=O)c2ccc(C)cc2)cc1OC (configuration not stated),inconclusive: -0.591%,
COc1ccc(OC)c(/C=N/NC(=O)CCc2c(C)n[nH]c2C)c1,inconclusive: 6.13%,
Cc1sc2nc(CSc3ccccc3)nc(N3CCN(C)CC3)c2c1C,inconclusive: -35.9%,
COc1cccc(C(=O)N2CCN(C(=O)c3cccc4ccccc34)CC2)c1OC,inconclusive: -17.3%,
COc1cc(Cl)cc(C=O)c1OCC(=O)O,,"inconclusive: 4.61 µM [falling, single point]"
COC(=O)c1ccccc1NC(=O)c1ccc(F)cc1,,"inconclusive: 2.31 µM [activator, partial curve]"
CC(C)(C)c1csc(NC(=O)Cn2c(=O)oc3ccccc32)n1,inconclusive: 43.3%,
COc1ccc(NC(=O)COC(=O)Cn2cnc3ccccc3c2=O)cc1OC,,"inconclusive: 0.184 µM [falling, full curve, poor fit]"
O=c1sc2ccccc2n1COc1ccccc1,inconclusive: 26.1%,
O=C(COC(=O)CNC(=O)c1ccccc1)Nc1ccc2c(c1)OCO2,inconclusive: 3.96%,
Cc1ccc(C(=O)NCC(=O)OCC(=O)Nc2cc(C)c(C)cc2[N+](=O)[O-])cc1,,"inconclusive: 29.1 µM [rising, single point]"
COc1cccc(C2CC(C(F)(F)F)n3ncc(C(=O)O)c3N2)c1 (configuration not stated),inactive,

# For convenience, part of the list above.
SMILES,"lipid storage change, negative = inhibition",Potency
O=C(COC(=O)CNC(=O)c1ccccc1)Nc1ccc2c(c1)OCO2,inconclusive: 3.96%,
Cc1ccc(C(=O)NCC(=O)OCC(=O)Nc2cc(C)c(C)cc2[N+](=O)[O-])cc1,,"inconclusive: 29.1 µM [rising, single point]"

# Reference: PubChem BioAssay AID2685 (National Center for Advancing Translational Sciences (NCATS), 2010)
